In article PMC5102573 (Clinical Pharmacology and Therapeutics, 2016):
Where two headings read alike, the source gives them in different places.

Columns and labels:
[1] = previous report; cited from earlier work
[2] = for Cmax lower (decrease) in cocktail than drug alone: geometric mean

- Cmax lower (decrease) in cocktail than drug alone ([2]; cocktail T1 vs alone): 19%
- Cmax lower (decrease) in cocktail than drug alone ([2]; cocktail T1 vs alone, listed as furosemide): 19.1%
- Cmax lower (decrease) in cocktail than drug alone ([2]; cocktail T2 vs alone): 21.4%
- Cmax, times higher in cocktail T3 than alone ([2]; cocktail T3 (20 mg furosemide dose) vs furosemide alone (5 mg dose)): 3.1 times
Structure (SMILES): NS(=O)(=O)c1cc(C(=O)O)c(NCc2ccco2)cc1Cl [Furosemide, furosemide]
- decrease in AUC following concomitant administration of metformin [1]: 12%
- decrease in Cmax following concomitant administration of metformin [1]: 31%
